## Library screen at single concentrations

Amino acid sequences for entries named in this document (tags omitted). Residues count along the entry.
UniProt Q4DA54, 1-478: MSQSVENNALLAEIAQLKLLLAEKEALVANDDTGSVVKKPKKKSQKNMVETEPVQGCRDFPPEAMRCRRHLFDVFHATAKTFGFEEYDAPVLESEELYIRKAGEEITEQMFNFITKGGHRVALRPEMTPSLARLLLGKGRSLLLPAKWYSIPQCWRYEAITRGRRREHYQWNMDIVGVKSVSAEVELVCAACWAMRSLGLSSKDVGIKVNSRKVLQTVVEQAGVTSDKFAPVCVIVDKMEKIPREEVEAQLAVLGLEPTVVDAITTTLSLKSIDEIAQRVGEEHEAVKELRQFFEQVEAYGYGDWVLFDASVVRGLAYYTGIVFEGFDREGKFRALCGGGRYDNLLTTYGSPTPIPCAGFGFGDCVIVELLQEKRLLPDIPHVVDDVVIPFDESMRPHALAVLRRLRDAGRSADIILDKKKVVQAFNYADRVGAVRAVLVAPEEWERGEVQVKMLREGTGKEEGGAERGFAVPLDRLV

From ChEMBL document CHEMBL3988442, “University of Dundee, Small-Polar-MMV Screening Library” (2021).

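Histidine-tRNA ligase, Trypanosoma cruzi CL Brener (UniProt Q4DA54). Enzyme assay of histidyl-tRNA synthetase; the read-out is not stated. Compounds at 30 µM. Direction is inferred from retests: higher values go with stronger inhibition. About 69,000 compounds were tested under these conditions; 0.045% (about 31) showed 50% or more at least once.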

The filed quantity is “Percent Effect” (%).
The record does not define 0% and 100%; most values in the screen are far below 50% and negative numbers occur (in some assays of this library far below -100).
This is an unselected part of the compounds tested.

| # | Compound | Percent Effect |
|---|---|---|
| 1 | `CS(=O)(=O)Nc1cccc(CNC(=O)c2cccs2)c1` | 5.844 |
| 2 | `COCc1cc(C[C@@H]2CC[C@H](O)[C@@H](CN(CC(C)C)CC(C)C)O2)no1` | 7.463 |
| 3 | `Cc1cc(CC(C)Nc2ncc(C)c(N(C)C)n2)[nH]n1` (centres unmarked) | -12.77 |
| 4 | `CCc1cnc2c(c1Nc1ccncc1)c(=O)n(C)c(=O)n2C` | 1.087 |
| 5 | `CCN(Cc1nc(C)no1)C(=O)C1CC(=O)N(Cc2ccccn2)C1` (centres unmarked) | -0.4292 |
| 6 | `CN1CCN(c2ccccc2CNC(=O)Cc2cccc(F)c2)CC1` | 2.128 |
| 7 | `CN1CCC(NC(=O)c2cc(Br)cc(Cl)c2O)C1=O` (centres unmarked) | 9.045 |
| 8 | `Cn1cccc1C(=O)N1Cc2c(CN3CCCCC3)nn(C)c2C1` | -58.4 |
| 9 | `O=c1ccn([C@H]2CCN(Cc3ncc[nH]3)CC[C@@H]2O)c(=O)[nH]1` | 5.993 |
| 10 | `CCn1cc(-c2cc(C(F)(F)F)nc(NC3CCCC3)n2)c(C)n1` | 3.093 |
| 11 | `CC(=O)N1CCN(C(=O)C2SCCc3sccc32)CC1` (centres unmarked) | 1.604 |
| 12 | `Cc1nn(C)c(N(C)C)c1CNCc1cccc(Cn2cccn2)c1` | 5.814 |
| 13 | `Cc1ncc2c(n1)CN(Cc1ncc(C(C)(C)C)o1)CC2` | 20.63 |
| 14 | `CS(=O)(=O)NCCNC(=O)NC1(c2ccc(F)cc2)CCCC1` | 3.896 |
| 15 | `CC(C)(C)c1nc(CN(Cc2ccccc2Cl)C2CCCC2)no1` | 7.447 |
| 16 | `Cc1n[nH]c(C2CN(Cc3csc(C4CCCCC4)n3)CCO2)n1` (centres unmarked) | 4.762 |
| 17 | `CCn1nc(C)c2nnn(CC(=O)Nc3cccc(F)c3)c(=O)c21` | 5.217 |
| 18 | `Cc1noc(CN(Cc2cccc(C#N)c2)Cc2cccs2)n1` | -0.8772 |
| 19 | `Cc1nc(C(=O)N2CCOC(Cc3ccc(F)cc3)C2)co1` (centres unmarked) | 3.077 |
| 20 | `CCC[C@H]1CN(CCS(C)(=O)=O)C[C@@H]1NC(=O)c1ccccc1F` | 5.155 |
| 21 | `CCc1ccccc1OC1CN(C(=O)CN(C)Cc2ccncc2)C1` | 3.59 |
| 22 | `Cc1nc(COCc2nc3c(o2)CN(C(=O)c2ccc[nH]2)C3)cs1` | 9.816 |
| 23 | `C1CCC(c2nc3c(c(N4CC(N5CCOCC5)C4)n2)CCNCC3)C1` | 4.516 |
| 24 | `COc1cc(CN2CC[C@@]3(CCCO3)[C@@H](O)C2)ccc1F` | 2.703 |
| 25 | `Cc1ncc(CN2CCc3nc4cc(C(C)(C)C)nn4c(O)c3C2)n1C` | 8.527 |
| 26 | `Clc1ccc(-c2ccc(C3CNCCO3)nc2)cc1` (centres unmarked) | 4.396 |
| 27 | `Cc1cncc(C2CCCN2CC(N)=O)n1` (centres unmarked) | 3.383 |
| 28 | `COc1ccnc(CN(C)C(=O)CSc2nnc(N)s2)c1` | 4.545 |
| 29 | `O=S(=O)(Cc1ccc(F)cc1)NCCc1nnc2n1CCC2` | 1.22 |
| 30 | `COc1ccc(C(=O)NCc2ccon2)cc1F` | 9.091 |
| 31 | `CSc1ccc(NCc2csc(C)n2)cc1F` | 2.186 |
| 32 | `O=C(NCc1ccon1)c1c(F)cc(Br)cc1F` | 3.627 |
| 33 | `COCC(=O)N1CCCCC1c1nc(N(C)C)ncc1-c1cc(C)no1` (centres unmarked) | 4.981 |
| 34 | `CC(C)n1c(C(=O)N2CCCC2)nc2c1CCN(C)C2` | -1.266 |
| 35 | `CN(Cc1ccccc1CN1CCCC1)C(=O)c1c(O)cccc1O` | 4.255 |
| 36 | `O=C(N1CCOCC1)N1CC[C@@](O)(c2ccccc2)[C@H]2CCCC[C@@H]21` | -2.564 |
| 37 | `Cc1noc(C)c1CNS(=O)(=O)N(C)Cc1ccccc1Br` | 4.211 |
| 38 | `COc1ccc(-c2nc(CCNC(=O)NCC3CCOC3)co2)cc1` (centres unmarked) | 3.097 |
| 39 | `O=C(Cn1cc(C2CC2)nn1)N(Cc1ccco1)CC1CCCO1` (centres unmarked) | 10 |
| 40 | `CCOCC1CN(C(=O)c2cccn2C)Cc2cnn(CC3CC3)c21` (centres unmarked) | 5.435 |
| 41 | `Cc1c(CN2CCOCC2)c(O)n(CCc2ccccc2)c(=O)c1C#N` | 4.018 |
| 42 | `O=C(c1ccsc1)N1CCc2c(COCC3CC3)cncc2C1` | -6.468 |
| 43 | `COc1cccc([C@H]2CN(C(=O)c3cc(C)on3)C[C@@H]2N)c1` | 1.932 |
| 44 | `COc1ccccc1OCC(=O)NCc1ncc(C)c(OC)c1C` | 5.952 |
| 45 | `COCCN1CCc2cc(C(=O)NCC3CC3)c(NC(C)C)nc2CC1` | -4.865 |
| 46 | `CN(Cc1ccoc1)c1ccc(-c2nccn2C)nn1` | 1.299 |
| 47 | `OCC(O)CSCc1nnc(-c2ccc(Cl)cc2)o1` (centres unmarked) | 3.947 |
| 48 | `Cc1nc[nH]c1CN(C)CC1CCCN(CCc2ccc(Cl)cc2)C1` (centres unmarked) | 11.57 |
| 49 | `Cn1cnnc1C1CCCN(C(=O)NCCNc2ccccn2)C1` (centres unmarked) | -1.132 |
| 50 | `c1coc(-c2nc(CNCCn3cccn3)cs2)c1` | 8.772 |
| 51 | `CC(C)C(Sc1cccs1)C(=O)NCc1cccnc1` (centres unmarked) | 12.31 |
| 52 | `CCOC1COC2(CCN(Cc3ccc4c(c3)OCO4)CC2)C1` (centres unmarked) | 3.008 |
| 53 | `O=C(CCc1ccncc1)N1CCc2c(ncnc2N2CCOCC2)C1` | -7.407 |
| 54 | `CCc1noc(C(C)N2CCc3c(ncn3C3CC3)C2)n1` (centres unmarked) | 10.43 |

7 of the entries, repeated:

{"compound": "C1CCC(c2nc3c(c(N4CC(N5CCOCC5)C4)n2)CCNCC3)C1", "Percent Effect": 4.516}
{"compound": "CCc1cnc2c(c1Nc1ccncc1)c(=O)n(C)c(=O)n2C", "Percent Effect": 1.087}
{"compound": "Cc1noc(C)c1CNS(=O)(=O)N(C)Cc1ccccc1Br", "Percent Effect": 4.211}
{"compound": "COCC(=O)N1CCCCC1c1nc(N(C)C)ncc1-c1cc(C)no1", "stereo": "centres unmarked", "Percent Effect": 4.981}
{"compound": "Cc1nc(C(=O)N2CCOC(Cc3ccc(F)cc3)C2)co1", "stereo": "centres unmarked", "Percent Effect": 3.077}
{"compound": "CCc1ccccc1OC1CN(C(=O)CN(C)Cc2ccncc2)C1", "Percent Effect": 3.59}
{"compound": "Cc1nc[nH]c1CN(C)CC1CCCN(CCc2ccc(Cl)cc2)C1", "stereo": "centres unmarked", "Percent Effect": 11.57}